Measurements taken from the supplement of paper PMC5949888.
Most values lie at the floor of the assay. Slopes are relative: functional sequences can read slightly below zero.

System: Saccharomyces cerevisiae PS128 hsf1 delta, HSF1(1-493) fusion
Experiment: growth estimate (transactivation domain function in HSF1 fusion, heat-shock survival) (a.u. (slope of normalised read count over time)); higher = stronger growth at 37°C, i.e. more transactivation activity
Settings: library: random library

| Substance | growth estimate |
| --- | --- |
| VSIQSILRFIRCYSGGSNAI | < -0.25 |
| VSIVEPTRRAGKFQLHS | < -0.25 |
| VSKAACILVIDSEGYEAGDR | < -0.25 |
| VSKGESSPNYVSRETERPES | < -0.25 |
| VSKVSYVSICSVRGDCCG | < -0.25 |
| VSLCFYVFAGTGVKVAGYCD | < -0.25 |
| VSLLGNFSPFWGL | 0.289 |
| VSNGLLFILPCLTRADKRLS | < -0.25 |
| VSPEHL | < -0.25 |
| VSPG | < -0.25 |
| VSPVAVPLRHR | -0.176 |
| VSQGMTVSIPKRLGVAFIY | < -0.25 |
| VSRECPNVSSAGFNYLLASG | < -0.25 |
| VSRGIPETHALRLRPGVLSR | < -0.25 |
| VSRGSSYLQLTLGK | < -0.25 |
| VSRKLNHDALTSRAPSKGSM | < -0.25 |
| VSRQGFLTVMRLNCEHQRCN | < -0.25 |
| VSRSGETTQINLTQTSEGGR | < -0.25 |
| VSRSGFTFTG | < -0.25 |
| VSRT | < -0.25 |
| VSRTRLRRRRTQNPF | < -0.25 |
| VSRYRTEGACMAGQG | < -0.25 |
| VSSFQR | < -0.25 |
| VSSLADYLGASTLGRVLENH | < -0.25 |
| VSSNRRLLGIITMRDHRRAR | < -0.25 |

| Substance | growth estimate |
| --- | --- |
| VSSPWSFLYSLRSGL | < -0.25 |
| VSSRDGSFAHKFKCAIDASV | < -0.25 |
| VSSSPVGQSVVIVSPKGGSQ | < -0.25 |
| VSTHTQWGQLDGQIGEKLT | -0.231 |
| VSTIFFPWTAKIVASANPLK | < -0.25 |
| VSTNTTADESPAPPCTRPTR | < -0.25 |
| VSTRQLETVRPGFRWQISRI | < -0.25 |
| VSTRVPMITGSIRG | < -0.25 |
| VSTSVRGRYACFLNPTYR | < -0.25 |
| VSVHACLGTHSQGPITG | < -0.25 |
| VSVRCHGSDS | -0.0061 |
| VSVRLGSMWHRHTLRVFGLV | < -0.25 |
| VSVVGGKMSVCAAQTHGPHW | < -0.25 |
| VSYAGRKPVRRFTLDHACSG | < -0.25 |
| VTAAAIWVGDCEKPWT | < -0.25 |
| VTAELWQEGVNKRCMTSGAG | < -0.25 |
| VTATR | < -0.25 |
| VTAVRRADFSCESAVVSKRW | < -0.25 |
| VTCTFSISIYKFGNSYK | < -0.25 |
| VTFGRSALPDVYRRWSMMHQ | < -0.25 |
| VTGLILYKMKT | < -0.25 |
| VTGLPAAVSLGSLIDAGWNA | < -0.25 |
| VTGSASQR | < -0.25 |
| VTGV | < -0.25 |
| VTGY | < -0.25 |

| Substance | growth estimate |
| --- | --- |
| VTHGCTGALRYTSALRHCTK | < -0.25 |
| VTHTVPQT | < -0.25 |
| VTIELRWAREKLCSAIRYFR | < -0.25 |
| VTKATTRITLCWTVAIPSTR | < -0.25 |
| VTKPSIMLKGL | < -0.25 |
| VTKYIHSPSLTSPLWLYVSA | < -0.25 |
| VTLNRD | < -0.25 |
| VTLVRLPFASHVNEPILTHI | < -0.25 |
| VTNGAIKRGFRIGALMCPGR | < -0.25 |
| VTPERCLRRCGSLKFGVSGH | < -0.25 |
| VTPVPTTVGGAPGHRSDGVV | < -0.25 |
| VTQ | < -0.25 |
| VTQGGFGRHGWLKGTGSIAG | < -0.25 |
| VTRATSELNMCARLPTVPH | < -0.25 |
| VTRISAQLREVSGRLERIGS | < -0.25 |
| VTRLCS | < -0.25 |
| VTRPDEWREIKGAHGGGTVQ | < -0.25 |
| VTRVLSPHISNAFTFERPIY | < -0.25 |
| VTS | < -0.25 |
| VTSALYVVSMNPPLRQLQR | < -0.25 |
| VTSIRQFS | < -0.25 |
| VTSRVVGSIRGHSVSDFGTS | < -0.25 |
| VTSTGCKSGGQPISVVGLNI | < -0.25 |
| VTTPATG | < -0.25 |
| VTTRRRIQGGLRWLITENSV | < -0.25 |

| Substance | growth estimate |
| --- | --- |
| VTTTDCGGAPIGSVDAVCSR | < -0.25 |
| VTTTDG | < -0.25 |
| VTV | 0.0829 |
| VTVFLLGDLV | < -0.25 |
| VTVPHKRVQESV | < -0.25 |
| VTVSEVPRC | < -0.25 |
| VTVYPYWCHRLKPV | < -0.25 |
| VTWLF | < -0.25 |
| VVAPV | < -0.25 |
| VVAPWCGDARDYRGFISSDI | < -0.25 |
| VVCQKTSTDGLAVPVGTAG | < -0.25 |
| VVCSARIEEGLLTTPICLVG | < -0.25 |
| VVDKGVEFM | < -0.25 |
| VVDQSM | < -0.25 |
| VVDREGFSKEFSKSCMGPAL | < -0.25 |
| VVF | < -0.25 |
| VVGF | < -0.25 |
| VVGHHAYSPGACSF | < -0.25 |
| VVGHSKC | < -0.25 |
| VVGNVPESERGRLAIGTSVS | < -0.25 |
| VVGPGRWGYPFPGW | < -0.25 |
| VVGSVVANRHYSVSSHNNKR | < -0.25 |
| VVH | < -0.25 |
| VVHAG | < -0.25 |
| VVHLATWPSGRYRV | < -0.25 |

| Substance | growth estimate |
| --- | --- |
| VVHV | < -0.25 |
| VVIR | < -0.25 |
| VVIRMLLIQVMDRDSGERLA | < -0.25 |
| VVIRRGTSSPFWICPL | -0.245 |
| VVKDGGDKQDRHRFHAPVT | < -0.25 |
| VVKRC | < -0.25 |
| VVLLRYVREGGNL | < -0.25 |
| VVLP | < -0.25 |
| VVLRSISGGNSIQSYGI | < -0.25 |
| VVLVNKLSPTEGQLHGYGKR | < -0.25 |
| VVMAVRRLRTQGCEVDCRNI | < -0.25 |
| VVMGAGA | -0.248 |
| VVMKRVGKRDDGTSLYEWCG | < -0.25 |
| VVNH | < -0.25 |
| VVPLLQREALNFLREASDLH | < -0.25 |
| VVPYL | < -0.25 |
| VVQAFYPTFKTRSLGKSQSA | < -0.25 |
| VVRCVG | < -0.25 |
| VVRFHSGRQYTQVL | < -0.25 |
| VVRIHLH | < -0.25 |
| VVRLAEGNSDPRTVSQYLRT | < -0.25 |
| VVRLASFR | < -0.25 |
| VVRMRSDKHAYDRSSESIVA | < -0.25 |
| VVRRELWAVGLCNDQIKCGK | < -0.25 |
| VVSLMGHTKQLDYSSNKLPA | < -0.25 |

| Substance | growth estimate |
| --- | --- |
| VVSRHGKCVISVAK | < -0.25 |
| VVTGEGFFSVLTG | < -0.25 |
| VVTIVRGATIACRDRFCTPP | < -0.25 |
| VVVPRPEGGGLLSSYYF | < -0.25 |
| VVVPTP | < -0.25 |
| VVVSGNNGTVCALVVMHSIQ | < -0.25 |
| VVWGVARLGSLGIFQPDPP | < -0.25 |
| VVYAP | < -0.25 |
| VWAICYANRAQFRV | < -0.25 |
| VWASDTLKRTPYEEGLRPTL | < -0.25 |
| VWCPSAVGETGRLGTKLLLG | < -0.25 |
| VWCSSETDSTCPCAVRYLQG | < -0.25 |
| VWCYEGPGCSRYPRSTRKAG | < -0.25 |
| VWGGVSPLGNLQPCWWLIHP | < -0.25 |
| VWLLYYYPHGEWGCDGRTAA | < -0.25 |
| VWNKHSLGLSVDVKIGAHAR | < -0.25 |
| VWPLYFWKQLQGRTAEEGNC | < -0.25 |
| VWPSVVAE | < -0.25 |
| VWREVCQLSVYPRIHAGTSL | < -0.25 |
| VWRIDECDSMQHA | < -0.25 |
| VWRIIINVSVRASPSSRGPI | < -0.25 |
| VWRLTVVKWTVGGFPLGCTS | < -0.25 |
| VWRRRRHRCWQYLLLFICQR | < -0.25 |
| VWSAKFGFSYECRHSASAVF | < -0.25 |
| VWSPGGGESCRAPNGTFFVD | < -0.25 |

Five records drawn at random from those above, as already listed:

| Substance | growth estimate |
| --- | --- |
| VVYAP | < -0.25 |
| VWLLYYYPHGEWGCDGRTAA | < -0.25 |
| VWRLTVVKWTVGGFPLGCTS | < -0.25 |
| VVSRHGKCVISVAK | < -0.25 |
| VWAICYANRAQFRV | < -0.25 |

Later entries

| Substance | growth estimate |
| --- | --- |
| VWSRSCTQRAARLSGGRQGG | < -0.25 |
| VWVIARQRNRDILLCVTYEG | < -0.25 |
| VWVVSRYKIQSIFCFILSPW | < -0.25 |
| VWWGRHPRPRGCGWLDYIL | < -0.25 |
| VYAARRKASVL | < -0.253 |
| VYAGI | 0.0687 |
| VYAKLYGYLD | < -0.25 |
| VYCPTES | < -0.25 |
| VYDA | < -0.25 |
| VYGVFVTGKCGLSVPQRLGW | < -0.25 |
| VYIEEPPLLASQAGARDLGF | < -0.25 |
| VYISGALTVCRLPGW | < -0.25 |
| VYKAGGGTDRKRVRCSNSYR | < -0.25 |
| VYKRR | < -0.25 |
| VYKT | < -0.25 |
| VYLECVGHRTFFAKLSE | -0.246 |
| VYLMQGGKHAMRQTRVRT | < -0.25 |
| VYPGKSWVCKSI | < -0.25 |
| VYPSVLRRLVHYEFSPATGS | < -0.25 |
| VYRHCKRAWPLSLGC | < -0.25 |
| VYRLGNVSDAFPQ | -0.168 |
| VYRLGRATSTYAAKAGICVG | < -0.25 |
| VYRSVAHVRQTVTYLPRTYL | < -0.25 |
| VYSIATP | < -0.25 |
| VYSVVFEFGRHGGMNLVHED | < -0.25 |

| Substance | growth estimate |
| --- | --- |
| VYVPERASPPDNRGLFLGCY | < -0.25 |
| VYYDMPRTVSC | < -0.25 |
| VYYFAACTRGLL | < -0.25 |
| WACIRSVC | < -0.25 |
| WAGGALHPAYVNHSV | < -0.25 |
| WANRGKTFLVLPSSVVAYIR | < -0.25 |
| WARGGGGL | < -0.25 |
| WARSLYVPPGRCLYGGQVNL | < -0.25 |
| WCCYSL | < -0.25 |
| WCGGATVHG | < -0.25 |
| WCKFVRHVSK | 0.126 |
| WCNASLLTS | < -0.25 |
| WCRRSARSWDKQY | < -0.25 |
| WCTW | < -0.253 |
| WDDTSD | < -0.25 |
| WDFPLKHRL | < -0.25 |
| WDGSTAAIFDYASGSRTGDN | < -0.25 |
| WDGVVAVASGTKLFETIVSV | < -0.25 |
| WDKTLARIALSRLGRYKGVK | < -0.25 |
| WDTRHHGEHRPHNWRMNLWG | < -0.25 |
| WEAQDKRGSYANGQTELTAL | < -0.25 |
| WEATGISSGLVSVY | -0.231 |
| WEATVLRACSGGSCSRQ | < -0.25 |
| WECQRLDFAVR | < -0.25 |

Shown bar-delimited: part of the list above.
Substance | growth estimate
VTTTDG | < -0.25
VTV | 0.0829
VTVFLLGDLV | < -0.25
VTVPHKRVQESV | < -0.25
VTVSEVPRC | < -0.25
VTVYPYWCHRLKPV | < -0.25
VTWLF | < -0.25
VVAPV | < -0.25
VVAPWCGDARDYRGFISSDI | < -0.25
VVCQKTSTDGLAVPVGTAG | < -0.25
VVCSARIEEGLLTTPICLVG | < -0.25
VVDKGVEFM | < -0.25
VVDQSM | < -0.25
VVDREGFSKEFSKSCMGPAL | < -0.25
VVF | < -0.25
VVGF | < -0.25
VVGHHAYSPGACSF | < -0.25
VVGHSKC | < -0.25
VVGNVPESERGRLAIGTSVS | < -0.25
VVGPGRWGYPFPGW | < -0.25
VVGSVVANRHYSVSSHNNKR | < -0.25
VVH | < -0.25
VVHAG | < -0.25
VVHLATWPSGRYRV | < -0.25
VVHV | < -0.25
VVIR | < -0.25
VVIRMLLIQVMDRDSGERLA | < -0.25
VVIRRGTSSPFWICPL | -0.245
VVKDGGDKQDRHRFHAPVT | < -0.25
VVKRC | < -0.25
VVLLRYVREGGNL | < -0.25
VVLP | < -0.25
VVLRSISGGNSIQSYGI | < -0.25
VVLVNKLSPTEGQLHGYGKR | < -0.25
VVMAVRRLRTQGCEVDCRNI | < -0.25
VVMGAGA | -0.248
VVMKRVGKRDDGTSLYEWCG | < -0.25
VVNH | < -0.25
VVPLLQREALNFLREASDLH | < -0.25
VVPYL | < -0.25
VVQAFYPTFKTRSLGKSQSA | < -0.25
VVRCVG | < -0.25
